# Data taken from PubChem BioAssay AID256 (DTP/NCI, 2004).
# The list shows only some results of the screen, not a fair sample: it covers a few groups of compounds. Not every dose and run of a compound is shown. T/C: endpoint of the treated group in % of that of the vehicle group. Some entries give survivors of the animals treated and no T/C: the source holds a T/C of zero for them, seemingly a mark for toxic or unscored doses. Some survivor counts are full or nearly so, which does not show that the dose was tolerated: the source hardly ever lists a survival T/C far under the control, and the zero likely stands for such cases as well. Counts of survivors are from the toxicity check (mostly the fifth day) where no day follows; animals may have died later. Schedules are NCI's codes, read here as Q, the interval in days (D) or hours (H), X, the number of doses. Some entries hold several experiments; the values are given in rising order. Where survival is the endpoint, this PubChem deposit counts one and a half times the control or more as active, and values a quarter to a half above the control carry no call in these data; other NCI protocols may use other cut-offs. Marks such as (2×) give the number of equal values in this list. Some T/C values are marked as having no survivor count here; that says nothing about deaths at the dose. Some T/C values carry the count of animals alive at the toxicity check (mostly the fifth day); where neither a count nor a note follows, no animal had died by that day.
# System: CD2F1 mice, L1210 leukemia ip, survival T/C
# Assay: NCI In Vivo Anticancer Drug Screen. Data for tumor model L1210 Leukemia (intraperitoneal) in CD2F1 (CDF1) mice
# Conditions: higher T/C = longer survival
# Outline: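 Mice carrying a transplanted tumor received test compound or vehicle alone. The value is the measurement in the treated group divided by that in the vehicle-treated control group.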
# [1] = T/C endpoint: mean survival time, dose: 100.0 mg/kg/injection, schedule: Q01DX009 (ip), vehicle: Klucel (hydroxypropylcellulose) (HPC)
# [2] = T/C endpoint: mean survival time, dose: 200.0 mg/kg/injection, schedule: Q01DX009 (ip), vehicle: Klucel (hydroxypropylcellulose) (HPC)
# [3] = T/C endpoint: mean survival time, dose: 100.0 mg/kg/injection, schedule: Q04DX003 (ip), vehicle: saline with Tween-80
# [4] = T/C endpoint: mean survival time, dose: 200.0 mg/kg/injection, schedule: Q04DX003 (ip), vehicle: saline with Tween-80
# [5] = T/C endpoint: mean survival time, dose: 400.0 mg/kg/injection, schedule: Q04DX003 (ip), vehicle: saline with Tween-80
compound,measurement,setting,value
ClP1(Cl)=NP(Cl)(Cl)=NP(Cl)(Cl)=NP(Cl)(Cl)=N1,T/C,"T/C endpoint: mean survival time, dose: 12.5 mg/kg/injection, schedule: Q01DX009 (ip), vehicle: Klucel (hydroxypropylcellulose) (HPC)",101 and 104 % of control
same,T/C,"T/C endpoint: mean survival time, dose: 25.0 mg/kg/injection, schedule: Q01DX009 (ip), vehicle: Klucel (hydroxypropylcellulose) (HPC)",97 and 101 % of control
same,T/C,"T/C endpoint: mean survival time, dose: 50.0 mg/kg/injection, schedule: Q01DX009 (ip), vehicle: Klucel (hydroxypropylcellulose) (HPC)",100 and 104 % of control
same,T/C,[1],104 % of control
same,survivor count,[1],3 of 6
same,T/C,[2],103 % of control
same,survivor count,[2],3 of 6
same,survivor count,"T/C endpoint: mean survival time, dose: 400.0 mg/kg/injection, schedule: Q01DX009 (ip), vehicle: Klucel (hydroxypropylcellulose) (HPC)",3 of 6 and 4 of 6
Nc1cc([As]=O)ccc1O (configuration not stated),T/C,"T/C endpoint: mean survival time, dose: 12.5 mg/kg/injection, schedule: Q01DX009 (ip), vehicle: saline",101 % of control
same,T/C,"T/C endpoint: mean survival time, dose: 25.0 mg/kg/injection, schedule: Q01DX009 (ip), vehicle: saline",93 % of control
same,T/C,"T/C endpoint: mean survival time, dose: 50.0 mg/kg/injection, schedule: Q01DX009 (ip), vehicle: saline",97 % of control [8 of 10 alive]
same,survivor count,"T/C endpoint: mean survival time, dose: 75.0 mg/kg/injection, schedule: Q01DX009 (ip), vehicle: saline",0 of 10
CCNP(=O)(OCCC(C)O)N(CCCl)CCCl (configuration not stated),T/C,"T/C endpoint: mean survival time, dose: 62.5 mg/kg/injection, schedule: Q01DX001 (ip), vehicle: DMSO",98 % of control
same,T/C,"T/C endpoint: mean survival time, dose: 125.0 mg/kg/injection, schedule: Q01DX001 (ip), vehicle: DMSO",105 % of control
same,T/C,"T/C endpoint: mean survival time, dose: 178.0 mg/kg/injection, schedule: Q01DX001 (ip), vehicle: DMSO",124 % of control
same,T/C,"T/C endpoint: mean survival time, dose: 250.0 mg/kg/injection, schedule: Q01DX001 (ip), vehicle: DMSO",130 % of control
same,T/C,"T/C endpoint: mean survival time, dose: 266.0 mg/kg/injection, schedule: Q01DX001 (ip), vehicle: DMSO",133 % of control
same,T/C,"T/C endpoint: mean survival time, dose: 400.0 mg/kg/injection, schedule: Q01DX001 (ip), vehicle: DMSO",179 % of control
same,T/C,"T/C endpoint: mean survival time, dose: 500.0 mg/kg/injection, schedule: Q01DX001 (ip), vehicle: DMSO",164 % of control
same,survivor count,"T/C endpoint: mean survival time, dose: 600.0 mg/kg/injection, schedule: Q01DX001 (ip), vehicle: DMSO",6 of 6
same,survivor count,"T/C endpoint: mean survival time, dose: 900.0 mg/kg/injection, schedule: Q01DX001 (ip), vehicle: DMSO",0 of 6
Cc1ccc(Sc2ccc([N+](=O)[O-])cc2[N+](=O)[O-])c([N+](=O)[O-])c1,T/C,"T/C endpoint: median survival time, dose: 12.5 mg/kg/injection, schedule: Q01DX009 (ip), vehicle: saline",98 % of control
same,T/C,"T/C endpoint: median survival time, dose: 25.0 mg/kg/injection, schedule: Q01DX009 (ip), vehicle: Klucel (hydroxypropylcellulose) (HPC)",116 % of control
same,T/C,"T/C endpoint: median survival time, dose: 25.0 mg/kg/injection, schedule: Q01DX009 (ip), vehicle: saline",102 % of control
same,T/C,"T/C endpoint: median survival time, dose: 50.0 mg/kg/injection, schedule: Q01DX009 (ip), vehicle: Klucel (hydroxypropylcellulose) (HPC)",103 % of control
same,T/C,"T/C endpoint: median survival time, dose: 50.0 mg/kg/injection, schedule: Q01DX009 (ip), vehicle: saline with Tween-80",108 % of control
same,T/C,"T/C endpoint: median survival time, dose: 50.0 mg/kg/injection, schedule: Q01DX009 (ip), vehicle: saline",98 % of control
same,T/C,"T/C endpoint: median survival time, dose: 100.0 mg/kg/injection, schedule: Q01DX009 (ip), vehicle: Klucel (hydroxypropylcellulose) (HPC)",112 % of control
same,T/C,"T/C endpoint: median survival time, dose: 100.0 mg/kg/injection, schedule: Q01DX009 (ip), vehicle: saline with Tween-80",106 % of control
same,T/C,"T/C endpoint: median survival time, dose: 100.0 mg/kg/injection, schedule: Q01DX009 (ip), vehicle: saline",104 % of control
same,T/C,"T/C endpoint: median survival time, dose: 200.0 mg/kg/injection, schedule: Q01DX009 (ip), vehicle: Klucel (hydroxypropylcellulose) (HPC)",103 % of control
same,T/C,"T/C endpoint: median survival time, dose: 200.0 mg/kg/injection, schedule: Q01DX009 (ip), vehicle: saline with Tween-80",102 % of control
same,T/C,"T/C endpoint: median survival time, dose: 200.0 mg/kg/injection, schedule: Q01DX009 (ip), vehicle: saline",98 % of control
same,T/C,"T/C endpoint: median survival time, dose: 400.0 mg/kg/injection, schedule: Q01DX009 (ip), vehicle: Klucel (hydroxypropylcellulose) (HPC)",111 % of control
same,T/C,"T/C endpoint: median survival time, dose: 400.0 mg/kg/injection, schedule: Q01DX009 (ip), vehicle: saline with Tween-80",100 % of control
same,T/C,"T/C endpoint: median survival time, dose: 400.0 mg/kg/injection, schedule: Q01DX009 (ip), vehicle: saline",102 % of control
same,T/C,"T/C endpoint: median survival time, dose: 800.0 mg/kg/injection, schedule: Q01DX009 (ip), vehicle: Klucel (hydroxypropylcellulose) (HPC)",108 % of control [4 of 6 alive]
same,T/C,"T/C endpoint: median survival time, dose: 800.0 mg/kg/injection, schedule: Q01DX009 (ip), vehicle: saline with Tween-80",107 % of control
O=[N+]([O-])c1cc([N+](=O)[O-])c(Nc2ccc(Cl)cc2)c([N+](=O)[O-])c1,T/C,[3],101 % of control [survivor count not shown]
same,T/C,[4],103 % of control [survivor count not shown]
same,T/C,[5],100 % of control [survivor count not shown]
Cc1ccc(P(=O)(Cl)Cl)cc1,T/C,"T/C endpoint: mean survival time, dose: 25.0 mg/kg/injection, schedule: Q04DX003 (ip), vehicle: saline with Tween-80",98 % of control
same,T/C,"T/C endpoint: mean survival time, dose: 50.0 mg/kg/injection, schedule: Q04DX003 (ip), vehicle: saline with Tween-80",92 % of control
same,T/C,[3],87 % of control
COc1ccccc1OCC(CN(C)C)OC(=O)C(O)(c1ccccc1)c1ccccc1 (configuration not stated),T/C,"T/C endpoint: mean survival time, dose: 100.0 mg/kg/injection, schedule: Q01DX001 (ip), vehicle: saline with Tween-80",96 % of control
same,T/C,"T/C endpoint: mean survival time, dose: 100.0 mg/kg/injection, schedule: Q04DX002 (ip), vehicle: saline with Tween-80",101 % of control
same,T/C,"T/C endpoint: mean survival time, dose: 200.0 mg/kg/injection, schedule: Q01DX001 (ip), vehicle: saline with Tween-80",93 % of control
same,T/C,"T/C endpoint: mean survival time, dose: 200.0 mg/kg/injection, schedule: Q04DX002 (ip), vehicle: saline with Tween-80",93 % of control
same,T/C,"T/C endpoint: mean survival time, dose: 400.0 mg/kg/injection, schedule: Q01DX001 (ip), vehicle: saline with Tween-80",91 % of control
CCC(CC)NC(C)CO.O=[N+]([O-])c1cc([N+](=O)[O-])c(O)c([N+](=O)[O-])c1,T/C,"T/C endpoint: mean survival time, dose: 75.0 mg/kg/injection, schedule: Q01DX001 (ip), vehicle: other",97 % of control [survivor count not shown]
same,T/C,"T/C endpoint: mean survival time, dose: 150.0 mg/kg/injection, schedule: Q01DX001 (ip), vehicle: other",95 % of control [survivor count not shown]
same,T/C,"T/C endpoint: mean survival time, dose: 300.0 mg/kg/injection, schedule: Q01DX001 (ip), vehicle: other",103 % of control [survivor count not shown]
O=P1(N(CCCl)CCCl)NCC(CO)O1 (configuration not stated),T/C,"T/C endpoint: mean survival time, dose: 6.25 mg/kg/injection, schedule: Q01DX009 (ip), vehicle: water",101 and 103 % of control
same,T/C,"T/C endpoint: mean survival time, dose: 12.5 mg/kg/injection, schedule: Q01DX009 (ip), vehicle: water",94 % of control (2×)
same,T/C,"T/C endpoint: mean survival time, dose: 23.3 mg/kg/injection, schedule: Q01DX001 (ip), vehicle: water",97 and 101 % of control
same,T/C,"T/C endpoint: mean survival time, dose: 25.0 mg/kg/injection, schedule: Q01DX009 (ip), vehicle: water",97 and 100 % of control
same,T/C,"T/C endpoint: mean survival time, dose: 38.9 mg/kg/injection, schedule: Q01DX001 (ip), vehicle: water",101 % of control (2×)
same,T/C,"T/C endpoint: mean survival time, dose: 50.0 mg/kg/injection, schedule: Q01DX009 (ip), vehicle: water",95 and 101 % of control
same,T/C,"T/C endpoint: mean survival time, dose: 64.8 mg/kg/injection, schedule: Q01DX001 (ip), vehicle: water",98 and 101 % of control
same,T/C,"T/C endpoint: mean survival time, dose: 100.0 mg/kg/injection, schedule: Q01DX009 (ip), vehicle: water",100 and 101 % of control
same,T/C,"T/C endpoint: mean survival time, dose: 108.0 mg/kg/injection, schedule: Q01DX001 (ip), vehicle: water",101 % of control (2×)
same,T/C,"T/C endpoint: mean survival time, dose: 180.0 mg/kg/injection, schedule: Q01DX001 (ip), vehicle: water",98 and 101 % of control
same,T/C,"T/C endpoint: mean survival time, dose: 200.0 mg/kg/injection, schedule: Q01DX009 (ip), vehicle: water",101 and 114 % of control
same,T/C,"T/C endpoint: mean survival time, dose: 300.0 mg/kg/injection, schedule: Q01DX001 (ip), vehicle: water",101 and 107 % of control
Cc1ccc(S(=O)(=O)N(CCCN)CCCc2c(C)nc(N)[nH]c2=O)cc1.O=[N+]([O-])c1cc([N+](=O)[O-])c(O)c([N+](=O)[O-])c1,T/C,[3],97 % of control
same,T/C,[4],97 % of control
same,T/C,[5],97 % of control
